Results deposited as PubChem BioAssay AID652272 (Drosophila RNAi Screening Center, 2013)
The deposit covers about 21,000 reagents; this is a random part of those that have a named target and a result. In the full data, 503 (2.4%) were called active. 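Raw plate light values, not normalised; calls rest on replicate z-scores that were not deposited; hits include reporter decreases as well as increases.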 Not given: the amount of reagent, the time to read-out.

Purpose: 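Genome-wide knock-down search for components of Hedgehog signalling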 (primary screen)
Cell system: Drosophila clone 8 (Cl8) cells
Reagents: long dsRNA against Drosophila genes
Read-out: 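Firefly light from a Hedgehog-responsive ptc promoter reporter and Renilla reference light, both read on a plate reader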
Reading the numbers: firefly Hh reporter signal: higher = more ptc reporter light; Renilla reference signal: higher = more Renilla control light
Active means: 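Hit when the z-score averaged over two replicates is under -2 or over +3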
Calls: active = hit: reporter lowered or raised; inactive = not a hit

Against Gp210 [DRSC04861] the deposit lists firefly Hh reporter signal, replicate 1 = 88192; firefly Hh reporter signal, replicate 2 = 1.05e5; Renilla reference signal, replicate 1 = 1435; Renilla reference signal, replicate 2 = 6896; inactive. After knock-down of Gp210 [DRSC04900] the results were firefly Hh reporter signal, replicate 1 = 1.58e5; firefly Hh reporter signal, replicate 2 = 1.23e5; Renilla reference signal, replicate 1 = 6408; Renilla reference signal, replicate 2 = 4569; inactive. Against Bmcp [DRSC10808], the values are firefly Hh reporter signal, replicate 1 = 1.27e5; firefly Hh reporter signal, replicate 2 = 1.10e5; Renilla reference signal, replicate 1 = 5616; Renilla reference signal, replicate 2 = 4768; inactive. With knock-down of PIG-F [DRSC11069], the record shows firefly Hh reporter signal, replicate 1 = 1.08e5; firefly Hh reporter signal, replicate 2 = 1.24e5; Renilla reference signal, replicate 1 = 3821; Renilla reference signal, replicate 2 = 3538; inactive. dpr3 [DRSC00395] gave firefly Hh reporter signal, replicate 1 = 87106; firefly Hh reporter signal, replicate 2 = 79572; Renilla reference signal, replicate 1 = 2391; Renilla reference signal, replicate 2 = 2087; inactive. Depletion of dpr3 [DRSC00396] resulted in: firefly Hh reporter signal, replicate 1 = 69307; firefly Hh reporter signal, replicate 2 = 81722; Renilla reference signal, replicate 1 = 2261; Renilla reference signal, replicate 2 = 2139; inactive.

Fdh [DRSC16670] scored firefly Hh reporter signal, replicate 1 = 1.50e5; firefly Hh reporter signal, replicate 2 = 94584; Renilla reference signal, replicate 1 = 4715; Renilla reference signal, replicate 2 = 3537; inactive. CG13720 [DRSC08329] showed firefly Hh reporter signal, replicate 1 = 18933; firefly Hh reporter signal, replicate 2 = 40408; Renilla reference signal, replicate 1 = 2609; Renilla reference signal, replicate 2 = 3104; inactive. For CG1999 [DRSC18199], the entry reads firefly Hh reporter signal, replicate 1 = 80355; firefly Hh reporter signal, replicate 2 = 70266; Renilla reference signal, replicate 1 = 1376; Renilla reference signal, replicate 2 = 1856; inactive. CG32176 [DRSC10057] showed firefly Hh reporter signal, replicate 1 = 1.91e5; Renilla reference signal, replicate 1 = 3505; Renilla reference signal, replicate 2 = 5445; inactive. For CG32176 [DRSC10058], the values are firefly Hh reporter signal, replicate 1 = 1.22e5; Renilla reference signal, replicate 1 = 4468; Renilla reference signal, replicate 2 = 3229; inactive. With knock-down of CG2955 [DRSC00552], the record shows firefly Hh reporter signal, replicate 1 = 62656; firefly Hh reporter signal, replicate 2 = 80678; Renilla reference signal, replicate 1 = 3047; Renilla reference signal, replicate 2 = 3285; inactive.

Flo2 [DRSC19062] showed firefly Hh reporter signal, replicate 1 = 6.77e5; firefly Hh reporter signal, replicate 2 = 2.53e5; Renilla reference signal, replicate 1 = 42149; Renilla reference signal, replicate 2 = 6272; inactive. With knock-down of Flo2 [DRSC20244] the results were firefly Hh reporter signal, replicate 1 = 89754; firefly Hh reporter signal, replicate 2 = 2.19e5; Renilla reference signal, replicate 1 = 2448; Renilla reference signal, replicate 2 = 11458; inactive.

As entered above.
Result for Flo2 [DRSC19062] in “Renilla reference signal, replicate 1”: 42149
Result for PIG-F [DRSC11069] under “firefly Hh reporter signal, replicate 2”: 1.24e5

The results go on.
Against CG4887 [DRSC00670], the values are firefly Hh reporter signal, replicate 1 = 1.64e5; firefly Hh reporter signal, replicate 2 = 1.56e5; Renilla reference signal, replicate 1 = 4069; Renilla reference signal, replicate 2 = 4001; inactive. Btnd [DRSC18316] scored firefly Hh reporter signal, replicate 1 = 70630; firefly Hh reporter signal, replicate 2 = 1.86e5; Renilla reference signal, replicate 1 = 2373; Renilla reference signal, replicate 2 = 6867; inactive. With knock-down of Cpn [DRSC16613], the record shows firefly Hh reporter signal, replicate 1 = 83971; firefly Hh reporter signal, replicate 2 = 88827; Renilla reference signal, replicate 1 = 3925; Renilla reference signal, replicate 2 = 4155; inactive. After knock-down of Pgk [DRSC00769] the results were firefly Hh reporter signal, replicate 1 = 1.53e5; firefly Hh reporter signal, replicate 2 = 98816; Renilla reference signal, replicate 1 = 3509; Renilla reference signal, replicate 2 = 2363; inactive. CG44085 [DRSC02922] showed firefly Hh reporter signal, replicate 1 = 29484; firefly Hh reporter signal, replicate 2 = 10404; Renilla reference signal, replicate 1 = 1443; Renilla reference signal, replicate 2 = 1613; active. Against CG44085 [DRSC02929], the entry reads firefly Hh reporter signal, replicate 1 = 1.36e5; firefly Hh reporter signal, replicate 2 = 64269; Renilla reference signal, replicate 1 = 2838; Renilla reference signal, replicate 2 = 5594; inactive.

After knock-down of hng3 [DRSC08367], the record shows firefly Hh reporter signal, replicate 1 = 85824; firefly Hh reporter signal, replicate 2 = 45380; Renilla reference signal, replicate 1 = 3428; Renilla reference signal, replicate 2 = 3862; inactive.
